This passage reports Bliss excess results from the supplement of paper PMC11061612.

Assay [1] deals with NCI-H1694 (Small Cell Lung Carcinoma). Nature of the assay: Bliss excess, mean over the matrix (fraction); higher = more synergy. The essentials:
(§1)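 Cell lines in DMEM/F12 or RPMI with 10% FBS were plated in 1536-well plates, held 24 hours at 37°C, 5% CO2, then given two-drug dose matrices for 72 hours (DMSO typically 0.2%). Viability was read by CellTiter-Glo 2.0 luminescence and scaled as inhibition from 0 (vehicle wells) to 1 (blank wells). Combination Emax is the second-highest inhibition in the matrix; Bliss excess is observed combination effect minus expected EA + EB − EA·EB, EA and EB being single-agent effects.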

Assay [2] relates to LU-99A (Non-Small Cell Lung Carcinoma). The assay is described as above. The essentials:
as §1

Each structure is given as a SMILES string.

On to `COc1cc2ncnc(Nc3ccc(F)c(Cl)c3)c2cc1OCCCN1CCOCC1` [Gefitinib] + CC(C)n1c(=O)n(C)c2cnc3cc(F)c(-c4ccc(OCCCN5CCCCC5)nc4)cc3c21 [AZD1390] (first compound max 10 µM, 7x7, partner max 0.3 µM), for which the Bliss excess in assay [1] is -0.0503; in assay [2], -0.0618.
